# Among all 340,000 compounds or so, about 170 (0.05%) were called active. Inconclusive means that the source gave no clear call. Such entries were picked first, then a sample of the others. Calls follow the shape of the dose curve; as a rule, active = well fitted inhibition curve with a large enough effect in the signal ratio, with a control signal flat (not every such curve was filed as active); inconclusive = small, poorly fitted or top-dose-only effect, or effect the other way, or a change in a side signal; inactive = flat fitted curve, though single readings scatter; the % refers to the signal ratio. Potencies beside an inconclusive call are fits to weak or partial responses and may not hold up.
# Test: qHTS Assay to Find Inhibitors of Chronic Active B-Cell Receptor Signaling;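 as to activity change, negative = inhibition: plate controls were basal doxycycline-induced cells for no effect and cells given 10 µM MG132 for full effect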
# Details: ABC-DLBCL IkBa-CBG/CBR reporter, luminescence ratio (green luciferase fused to IkBa over red control in TMD8 lymphoma cells), 4 h
# Procedure, shortened: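 Compounds up to 46 uM were incubated four hours with TMD8 cells whose green CBG68 luciferase is fused to IkappaBalpha; red CBR luminescence normalised the signal, and concentration-effect curves were fitted to fusion, red and ratio data.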
# [1] = activity change, negative = inhibition: at 46.1 µM (top of the series)
# Potency is read from the fitted curve at half-maximal effect.
smiles,measurement,setting,value
CC1CCCCC1NC(=O)CCCc1nc2ccccc2c(=O)[nH]1 (stereo not drawn),"activity change, negative = inhibition",[1],inconclusive: 2.98%
CC(=O)c1cccc(NC(=O)CN2C(=O)C(=O)N(Cc3ccco3)C2=O)c1,"activity change, negative = inhibition",[1],inconclusive: -0.672%
CCNc1oc(/C=C/c2ccc(OCC)cc2)nc1C#N,"activity change, negative = inhibition",[1],inconclusive: -0.948%
Cc1cc(C(=O)Nc2c(C)nn(Cc3ccccc3)c2C)on1,"activity change, negative = inhibition",[1],inconclusive: 8.92%
COc1cccc(NC(=O)N2CCc3ccccc3C2)c1,Potency,[1],"inconclusive: 28.2 µM [falling, single point]"
Cn1c(=O)c2c(SCC(=O)N3CCCC3)nc(CC(C)(C)C)nc2n(C)c1=O,"activity change, negative = inhibition",[1],inactive
Cc1ccc(-c2cn(-c3ccccc3)c(SCC(N)=O)n2)cc1C,"activity change, negative = inhibition",[1],inconclusive: 10.7%
CC(=O)N/C(=N/c1nc(C)cc(C)n1)Nc1ccc(F)cc1F,"activity change, negative = inhibition",[1],inconclusive: -0.335%
O=C(O)c1ccc(CNC(=O)c2ccccc2NC(=O)c2cccc([N+](=O)[O-])c2)cc1,Potency,[1],"inconclusive: 35.5 µM [falling, single point]"
O=C(N/N=C/C1CCCCC1)c1ccccc1-n1cccc1,"activity change, negative = inhibition",[1],inconclusive: 8.52%
COc1cccc(C(=O)Nc2ccc(N3CCN(S(C)(=O)=O)CC3)cc2)c1,Potency,[1],"inconclusive: 0.206 µM [falling, full curve, poor fit]"
O=C(N/N=C/c1cccs1)/C(=C/c1ccccc1)NC(=O)c1ccccc1,"activity change, negative = inhibition",[1],inactive
COC(=O)c1ccccc1NCCO,"activity change, negative = inhibition",[1],inconclusive: -0.0069%
CCC1Sc2ccc(S(=O)(=O)CCC(=O)Nc3ccc(OC(F)(F)F)cc3)cc2NC1=O (stereo not drawn),"activity change, negative = inhibition",[1],inconclusive: 3.69%
NC(=S)N/N=C/c1c[nH]c2ccccc12,"activity change, negative = inhibition",[1],inactive
CCCCNC(=O)c1cccc(S(=O)(=O)N2CC3(C)CC2CC(C)(C)C3)c1 (stereo not drawn),"activity change, negative = inhibition",[1],inconclusive: -0.881%
CCCCOc1ccc(NC(=O)C(=O)NCCCn2ccnc2)cc1,"activity change, negative = inhibition",[1],inconclusive: 7.41%
Cn1c(SCc2ccccc2)nc2ccsc2c1=O,"activity change, negative = inhibition",[1],inconclusive: -0.326%
Cc1cccc(C(=O)O/N=C(\N)CS(=O)(=O)c2ccccc2)c1,"activity change, negative = inhibition",[1],inconclusive: -1.73%
COc1ccc(C(=O)/C=C/Nc2ccc([N+](=O)[O-])cc2)cc1,"activity change, negative = inhibition",[1],inconclusive: 5.68%
O=[N+]([O-])c1ccccc1S(=O)(=O)Nc1cccc2cccnc12,Potency,[1],"inconclusive: 3.16 µM [falling, full curve, poor fit]"
COC(=O)C1CCN(C(=O)C(C)Oc2ccc(Cl)cc2Cl)CC1 (stereo not drawn),"activity change, negative = inhibition",[1],inconclusive: 13.4%
COc1cccc(NC(=O)CN(C)C(=O)CCNC(=O)c2ccc(Br)cc2)c1,"activity change, negative = inhibition",[1],inconclusive: 10%
COc1cc2c(cc1NS(=O)(=O)N1CCCC1)oc1ccccc12,"activity change, negative = inhibition",[1],inconclusive: 23.6%
O=S(=O)(c1ccccc1)N1N=C(c2cccs2)CC1c1ccc(F)cc1 (stereo not drawn),"activity change, negative = inhibition",[1],inactive
COc1ccc(S(=O)(=O)N(CC(=O)Nc2ccc3c(c2)OCO3)c2ccccc2OC)cc1,"activity change, negative = inhibition",[1],inconclusive: 5.94%
Cc1cccnc1-n1c(CCN2C(=O)c3ccccc3C2=O)nc2ccccc2c1=O,"activity change, negative = inhibition",[1],inconclusive: -19.5%
COc1ccc(C(=O)N2CCN(Cc3ccc(OC)c(OC)c3)CC2)cc1,"activity change, negative = inhibition",[1],inactive
COc1ccc(OC)c(C2CC(c3ccc(NS(C)(=O)=O)cc3)=NN2C(=O)c2ccccc2)c1 (stereo not drawn),"activity change, negative = inhibition",[1],inconclusive: 2.5%
CCCCCCCCSc1n[nH]c(N)n1,"activity change, negative = inhibition",[1],inconclusive: 0.92%
Cc1cccc(CSc2ncccc2C(=O)O)c1,"activity change, negative = inhibition",[1],inconclusive: 2%
same,"activity change, negative = inhibition",at 46.1 µM (top of the series),inactive: 15.9%
O=C(Nc1ccc(N2CCN(C(=O)c3cccs3)CC2)cc1)c1ccc(F)cc1,"activity change, negative = inhibition",[1],inactive
COc1cccc(NC(=O)CSc2nnc(Cc3ccc(OC)c(OC)c3)o2)c1,Potency,[1],"inconclusive: 35.5 µM [falling, partial curve, poor fit]"
O=C(CSc1ncnc2c1cnn2-c1ccccc1)NC1CCS(=O)(=O)C1 (stereo not drawn),"activity change, negative = inhibition",[1],inconclusive: -3.05%
Nc1ccccc1NC(=O)c1ccccc1,Potency,[1],"inconclusive: 11.2 µM [falling, partial curve]"
O=C(CNc1ccc(Br)cc1)c1ccccc1,"activity change, negative = inhibition",[1],inconclusive: -0.0487%
COC(=O)c1sccc1-c1ccc(C(=O)Nc2ccccc2)o1,Potency,[1],"inconclusive: 35.5 µM [falling, single point]"
COc1ccc(CCNC(=O)C(=O)NCC2OCCN2S(=O)(=O)c2ccc(C)cc2)cc1OC (stereo not drawn),"activity change, negative = inhibition",[1],inconclusive: -7.75%
CSc1nc2nc3c(c(=O)n2[nH]1)CN(Cc1ccccc1)CC3,"activity change, negative = inhibition",[1],inconclusive: 14.8%
CCN(CC)C(=O)CSc1nnc(-c2cccnc2)n1CCc1ccccc1,"activity change, negative = inhibition",[1],inconclusive: 2.89%
Cc1cccc(CSc2nnc3[nH]c(=O)cc(-c4ccccc4)n23)c1,Potency,[1],"inconclusive: 0.2 µM [rising, full curve, poor fit]"
CC12CCC(C(=O)NNC(=O)c3ccccc3)(OC1=O)C2(C)C (stereo not drawn),"activity change, negative = inhibition",[1],inactive
CC(C)(C)OC(=O)N1CCC(CNC(=O)c2ccc(F)cc2)CC1,"activity change, negative = inhibition",[1],inactive
Cn1cccc1C(=O)Nc1nc(-c2ccccn2)cs1,Potency,[1],"inconclusive: 35.5 µM [rising, single point]"
O=C(Nc1cc(Cl)cc(Cl)c1)c1ccc(F)c(S(=O)(=O)N2CCN(c3ccccc3F)CC2)c1,"activity change, negative = inhibition",[1],inactive
Cn1c(=N)c(S(=O)(=O)c2ccccc2)cc2c(=O)n3ccccc3nc21,"activity change, negative = inhibition",[1],inactive
Cc1nc2c(ccc3nc(NC(=O)C(c4ccccc4)c4ccccc4)sc32)s1,"activity change, negative = inhibition",[1],inactive
COc1cccc(Nc2nc(-c3sc(NC(=O)CC(C)C)nc3C)cs2)c1,"activity change, negative = inhibition",[1],inactive
COc1ccc(N2C(=O)C3C(C2=O)C(C(=O)c2ccccc2)N2CCCC32)cc1 (stereo not drawn),Potency,[1],"inconclusive: 35.5 µM [falling, single point]"
Cc1ccccc1NC1=C(Cl)C(=O)OC1OC(=O)c1ccco1 (stereo not drawn),Potency,[1],"inconclusive: 25.9 µM [falling, partial curve, poor fit]"
CSc1ccccc1NC(=O)CN(C)Cc1cccc(Cl)c1,"activity change, negative = inhibition",[1],inactive
Cc1cnc(C(=O)OCC(=O)c2ccc(F)cc2)cn1,"activity change, negative = inhibition",[1],inactive
Cc1ccc(NC(=S)N(Cc2ccccc2)Cc2cccs2)c(C)c1,"activity change, negative = inhibition",[1],inactive
C=CCOC(=O)C1=C[C@H](c2cn(C(C)=O)c3ccccc23)C[C@H](OCc2ccc(CO)cc2)O1,"activity change, negative = inhibition",[1],inactive
CCCCNS(=O)(=O)c1ccc2nc(SCC(N)=O)[nH]c2c1,"activity change, negative = inhibition",[1],inconclusive: 3%
O=C(ONC1=NCCCCC1)c1ccc([N+](=O)[O-])cc1,"activity change, negative = inhibition",[1],inconclusive: -1.2%
Cc1cc(-c2nnc(SCC(=O)Nc3ccccn3)o2)no1,"activity change, negative = inhibition",[1],inactive
COc1cc(/C=N/NC(=O)c2cccc([N+](=O)[O-])c2)ccc1OCc1ccc(C)cc1,"activity change, negative = inhibition",[1],inactive
N#C/C(=C\c1ccc(-c2ccc(F)cc2)o1)C(=O)Nc1nc(-c2cccs2)cs1,"activity change, negative = inhibition",[1],inactive
Cc1ccc2nc(NC(=O)Cn3cc4c(n3)CCCCC4)sc2c1,"activity change, negative = inhibition",[1],inconclusive: 24.2%
COc1ccc(C(CC(=O)N2CCCC2)C(C)C)cc1 (stereo not drawn),"activity change, negative = inhibition",[1],inconclusive: -0.294%
COc1ccc(C(=O)Nc2nnc(CC(=O)N/N=C/c3ccc(O)cc3O)s2)cc1,"activity change, negative = inhibition",[1],inconclusive: 4.86%
O=c1ccc(Oc2nc(N3CCOCC3)nc(N3CCOCC3)n2)nn1-c1ccccc1,"activity change, negative = inhibition",[1],inconclusive: 7.46%
NC(=O)C1CCCNC1 (stereo not drawn),"activity change, negative = inhibition",[1],inactive
Cc1ccc(-c2ccc(/C=N/NC(N)=S)o2)cc1,Potency,[1],active: 22.4 µM
CCOC(=O)C1CCN(C(=O)Nc2cccc(Cl)c2)CC1,Potency,[1],"inconclusive: 14.6 µM [rising, partial curve]"
O=C(Nc1ccccc1F)c1ccn[nH]1,Potency,[1],"inconclusive: 7.94 µM [falling, partial curve]"
Cc1cc(N2CCN(c3ccccc3)CC2)n2nnnc2n1,"activity change, negative = inhibition",[1],inconclusive: -0.617%
CCn1c2ccccc2c2nc3ccccc3nc21,"activity change, negative = inhibition",[1],inactive
CCNc1nc(NCC)nc(SCCOC(=O)Nc2ccccc2)n1,"activity change, negative = inhibition",[1],inconclusive: 7.87%
O=C(/C=C/c1cc(Br)ccc1O)c1ccco1,"activity change, negative = inhibition",[1],inconclusive: 0.842%
CSc1ccc(C(=O)C2CCCN(Cc3cccn3-c3cccnc3)C2)cc1 (stereo not drawn),"activity change, negative = inhibition",[1],inactive
Cc1ccccc1-n1c2nc(=O)n(C)c(=O)c-2cc2ccccc21,"activity change, negative = inhibition",[1],inactive
CCCc1[nH]nc2c1C(c1ccc(Br)s1)C(C#N)=C(N)O2 (stereo not drawn),"activity change, negative = inhibition",[1],inconclusive: 17.1%
CCc1ccc(NC(=O)N2CCN(c3ccccc3)CC2)cc1,"activity change, negative = inhibition",[1],inconclusive: 4.1%
COc1ccc2nc(N/C(N)=N/S(C)(=O)=O)nc(C)c2c1,"activity change, negative = inhibition",[1],inactive
c1cc2cc(-c3c(-c4ccc5c(c4)OCO5)noc3-c3ccsc3)ccc2[nH]1,Potency,[1],"inconclusive: 10 µM [rising, partial curve]"
C=C(C)C(=O)Nc1cccc(C2=NOC3(C2)C[C@@H](C(N)=O)N(C(=O)c2cc([N+](=O)[O-])cc([N+](=O)[O-])c2C)C3)c1 (stereo partly drawn),"activity change, negative = inhibition",[1],inactive
CCNc1nc(N)nc(-c2cc(Cl)ccc2O)n1,"activity change, negative = inhibition",[1],inconclusive: 10.5%
COc1ccc(C(=O)CN2CCN(c3ccc(F)cc3)CC2)cc1,"activity change, negative = inhibition",[1],inconclusive: -12.5%
CCn1c(=O)cc(OCC(=O)N2CCCC2)c2ccccc21,"activity change, negative = inhibition",[1],inconclusive: -0.365%
O=C(O)c1cccc(-n2cc(-c3cccc(C(F)(F)F)c3)cn2)c1,Potency,[1],"inconclusive: 22.4 µM [falling, single point]"
COc1ccc(-c2ccc(C(=O)C3CC3)cc2)cc1,"activity change, negative = inhibition",[1],inconclusive: 8.1%
CCOC(=O)c1c(-c2ccccc2)nnn1-c1nc(OCC)nc(N2CCCCC2)n1,"activity change, negative = inhibition",[1],inconclusive: 5.67%
CC(C)OP(=O)(OC(C)C)C1(NS(=O)(=O)c2ccc(Cl)cc2)C=C(Cl)C(=O)C(Cl)=C1,"activity change, negative = inhibition",[1],inactive
CCCn1c(C2CCCN2c2nc(-c3ccc(OC)cc3)cs2)nc2ccccc21 (stereo not drawn),"activity change, negative = inhibition",[1],inconclusive: 16.9%
COc1ccc([C@@H]2CC=C(C(=O)O)[C@H](c3ccccc3F)N2S(=O)(=O)c2ccccc2C)cc1,"activity change, negative = inhibition",[1],inactive

# Quoted at random: 5 entries already listed
smiles,measurement,setting,value
CCCCNC(=O)c1cccc(S(=O)(=O)N2CC3(C)CC2CC(C)(C)C3)c1 (stereo not drawn),"activity change, negative = inhibition",[1],inconclusive: -0.881%
COc1ccc(N2C(=O)C3C(C2=O)C(C(=O)c2ccccc2)N2CCCC32)cc1 (stereo not drawn),Potency,[1],"inconclusive: 35.5 µM [falling, single point]"
CCn1c(=O)cc(OCC(=O)N2CCCC2)c2ccccc21,"activity change, negative = inhibition",[1],inconclusive: -0.365%
Cc1ccc(-c2ccc(/C=N/NC(N)=S)o2)cc1,Potency,[1],active: 22.4 µM
COc1ccc(C(CC(=O)N2CCCC2)C(C)C)cc1 (stereo not drawn),"activity change, negative = inhibition",[1],inconclusive: -0.294%

# Source: PubChem BioAssay AID493014 (National Center for Advancing Translational Sciences (NCATS), 2011)
